Source: PubChem BioAssay AID1053208 (Peter MacCallum Cancer Centre, 2014)
In all, the deposit lists about 17,000 reagents; this is a part drawn at random. Over the whole deposit, 788 (4.7%) were called active. 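Calls rest on z-score classes alone; an extra cut-off of viability at most 70% of control was not applied to them.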 Unmarked entries are inactive. No sequences are given here.

Assay: 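Synthetic lethal interactions between gene loss and doxorubicin in osteosarcoma cells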 (primary screen)
System: mouse osteosarcoma cells, early-passage culture from an engineered mouse model of fibroblastic bone tumour
Reagent: siRNA pool against mouse genes, 40 nM
Time to read-out: about 120 h (48 h before drug, then 72 h with drug)
Treatment: doxorubicin 100 nM for 72 h, roughly 30-40% inhibitory dose
Measured: 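Viability read as ATP luminescence after 72 h of 100 nM doxorubicin or none, duplicate wells averaged, scaled to non-targeting siRNA, then expressed as robust z-scores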
Scale: viability z-score with doxorubicin and doxorubicin viability vs non-targeting: higher = more viable cells under doxorubicin; viability z-score without drug: higher = more viable cells with knock-down alone; z-score of drug to no-drug ratio: higher = less drug sensitisation by knock-down
Call rule: 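Called active if knock-down leaves viability unchanged without drug (z within -2 to 2) but lowers it with doxorubicin (z at or under -2)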

Target gene	combined z-score class	viability z-score with doxorubicin	viability z-score without drug	z-score of drug to no-drug ratio	doxorubicin viability vs non-targeting
Acot8 (acyl-CoA thioesterase 8)	high cell count without drug only	0.11	2.36	-1.24	0.95
Sox18 (SRY (sex determining region Y)-box 18)	no change with or without drug	0.56	0.34	0.45	0.99
Btd (biotinidase)	no change with or without drug	0.56	0.84	0.11	0.99
Or5b3 (olfactory receptor family 5 subfamily B member 3)	no change with or without drug	-0.11	-0.51	0.34	0.93
Selenok (selenoprotein K)	no change with or without drug	0	0.17	0	0.94
Hkdc1 (hexokinase domain containing 1)	no change with or without drug	0.56	0.51	0.34	0.99
Alpl (alkaline phosphatase, liver/bone/kidney)	low cell count with doxorubicin only (active)	-2.47	-0.51	-2.25	0.72
Spry1 (sprouty RTK signaling antagonist 1)	no change with or without drug	0.67	0.67	0.34	1
Psmc2 (proteasome (prosome, macropain) 26S subunit, ATPase 2)	low cell count with and without drug	-4.95	-3.71	-3.37	0.5
Pcdhb21 (protocadherin beta 21)	no change with or without drug	-1.24	0.17	-1.35	0.83
Idi2 (isopentenyl-diphosphate delta isomerase 2)	no change with or without drug	-0.45	-0.51	0	0.9
Hdac5 (histone deacetylase 5)	no change with or without drug	0	0.51	-0.22	0.94
Setdb1 (SET domain, bifurcated 1)	no change with or without drug	-1.12	-0.84	-0.56	0.84
Tpra1 (transmembrane protein, adipocyte asscociated 1)	no change with or without drug	-1.57	-1.01	-0.9	0.8
Ifnab (interferon alpha B)	no change with or without drug	-0.9	-0.67	-0.34	0.86
Hspd1 (heat shock protein 1 (chaperonin))	no change with or without drug	1.35	-0.34	1.8	1.06
Rab6b (RAB6B, member RAS oncogene family)	no change with or without drug	1.12	-0.34	1.57	1.04
Agt (angiotensinogen)	no change with or without drug	0.22	-0.51	0.67	0.96
Cnot7 (CCR4-NOT transcription complex, subunit 7)	no change with or without drug	-1.01	-0.51	-0.67	0.85
Chtop (chromatin target of PRMT1)	no change with or without drug	0	-0.17	0.22	0.94
H2-Q10 (histocompatibility 2, Q region locus 10)	no change with or without drug	0.45	-0.84	1.24	0.98
Atp12a (ATPase, H+/K+ transporting, nongastric, alpha polypeptide)	no change with or without drug	0.45	0	0.56	0.98
Col15a1 (collagen, type XV, alpha 1)	no change with or without drug	0.67	0.84	0.22	1
Mtmr4 (myotubularin related protein 4)	no change with or without drug	-1.24	0.84	-1.69	0.83
Arl4c (ADP-ribosylation factor-like 4C)	no change with or without drug	-0.22	-0.67	0.34	0.92
C030033M19RIK	no change with or without drug	0	-1.18	1.01	0.94
Rps25 (ribosomal protein S25)	no change with or without drug	-0.34	-1.69	1.01	0.91
Bcl9l (B cell CLL/lymphoma 9-like)	no change with or without drug	-1.12	-1.52	0	0.84
Ppp4r4 (protein phosphatase 4, regulatory subunit 4)	no change with or without drug	-0.9	-0.17	-0.79	0.86
Gypc (glycophorin C)	no change with or without drug	0	-1.01	0.9	0.94
Chst12 (carbohydrate sulfotransferase 12)	no change with or without drug	-1.8	0.51	-2.02	0.78
Slc46a2	no change with or without drug	0.56	-0.17	0.79	0.99
Tgm2 (transglutaminase 2, C polypeptide)	no change with or without drug	0.9	0.17	0.9	1.02
Cdh13 (cadherin 13)	no change with or without drug	-0.22	-0.84	0.45	0.92
Pms2 (PMS1 homolog2, mismatch repair system component)	no change with or without drug	1.35	0.67	1.01	1.06
Ect2 (epithelial cell transforming 2)	no change with or without drug	-0.22	-1.52	1.01	0.92
Zfp945 (zinc finger protein 945)	no change with or without drug	0.45	0.34	0.34	0.98
Nfatc3	no change with or without drug	0.67	0.67	0.34	1
Sox2ot (SOX2 overlapping transcript (non-protein coding))	no change with or without drug	-0.34	0.17	-0.34	0.91
Rnf2 (ring finger protein 2)	low cell count with and without drug	-2.7	-2.19	-1.46	0.7
Rrh (retinal pigment epithelium derived rhodopsin homolog)	no change with or without drug	0.22	1.01	-0.34	0.96
Sf3b1 (splicing factor 3b, subunit 1)	low cell count with doxorubicin only (active)	-7.08	-1.35	-6.97	0.31
Hoxc8 (homeobox C8)	no change with or without drug	0	0.51	-0.22	0.94
Nars1 (asparaginyl-tRNA synthetase 1)	no change with or without drug	0.9	-0.51	1.46	1.02
Foxb2 (forkhead box B2)	no change with or without drug	0.79	0.51	0.56	1.01
Eipr1 (EARP complex and GARP complex interacting protein 1)	low cell count with and without drug	-2.47	-2.19	-1.12	0.72
Tbk1 (TANK-binding kinase 1)	no change with or without drug	0.56	-0.84	1.35	0.99
Zscan22 (zinc finger and SCAN domain containing 22)	no change with or without drug	1.12	0.34	1.01	1.04
Hoxb2 (homeobox B2)	no change with or without drug	-0.9	-1.69	0.34	0.86
Cldn8 (claudin 8)	low cell count with doxorubicin only (active)	-2.25	-1.52	-1.35	0.74

Already shown: entries from further up.
Target gene	combined z-score class	viability z-score with doxorubicin	viability z-score without drug	z-score of drug to no-drug ratio	doxorubicin viability vs non-targeting
Tgm2 (transglutaminase 2, C polypeptide)	no change with or without drug	0.9	0.17	0.9	1.02
Cdh13 (cadherin 13)	no change with or without drug	-0.22	-0.84	0.45	0.92
Pms2 (PMS1 homolog2, mismatch repair system component)	no change with or without drug	1.35	0.67	1.01	1.06
Ect2 (epithelial cell transforming 2)	no change with or without drug	-0.22	-1.52	1.01	0.92
Zfp945 (zinc finger protein 945)	no change with or without drug	0.45	0.34	0.34	0.98
Nfatc3	no change with or without drug	0.67	0.67	0.34	1
Sox2ot (SOX2 overlapping transcript (non-protein coding))	no change with or without drug	-0.34	0.17	-0.34	0.91
Rnf2 (ring finger protein 2)	low cell count with and without drug	-2.7	-2.19	-1.46	0.7
